Assay results from publication PMC11461529.
These are yes or no findings as the source states them, for the method shown. Binding seen in cells or lysates may run through a third protein. Some entries that bind do so weakly or less than the wild type.

Target: T1, katanin-like 2 (KL2) (mouse (endogenous in mouse oocytes)) (UniProt Q9D3R6)
T1 sequence: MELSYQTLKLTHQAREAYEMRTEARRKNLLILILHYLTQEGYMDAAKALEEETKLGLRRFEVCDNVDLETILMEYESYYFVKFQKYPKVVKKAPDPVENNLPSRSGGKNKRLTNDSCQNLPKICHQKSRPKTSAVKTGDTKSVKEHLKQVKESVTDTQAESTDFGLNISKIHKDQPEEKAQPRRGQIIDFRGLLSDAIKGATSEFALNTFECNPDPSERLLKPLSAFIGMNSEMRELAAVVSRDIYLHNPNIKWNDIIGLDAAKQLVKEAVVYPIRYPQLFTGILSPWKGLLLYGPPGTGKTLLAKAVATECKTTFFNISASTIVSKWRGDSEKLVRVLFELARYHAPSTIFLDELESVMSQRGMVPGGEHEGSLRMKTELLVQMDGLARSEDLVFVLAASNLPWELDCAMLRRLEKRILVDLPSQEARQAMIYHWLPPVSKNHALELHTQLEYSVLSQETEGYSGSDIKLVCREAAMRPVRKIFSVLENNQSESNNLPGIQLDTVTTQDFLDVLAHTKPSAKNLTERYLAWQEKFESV
Experiment: co-IP; endogenous proteins of mouse oocyte lysate (Fig. 4B and 4D); which protein was precipitated is not given

B1: phosphorylated eukaryotic elongation factor-2 kinase (p-eEF2K) (enzyme, UniProt O08796 1-724)
chain: MADEDLIFCLEGVDGGRCSRAGHNADSDTDSDDDEGYFICPITDDHMSNQNVSSKVQSYYSNLTKTECGSTGSPASSFHFKEAWKHAIEKAKHMPDPWAEFHLEDIATEHATRHRYNAVTGEWLKDEVLIKMASQPFGRGAMRECFRTKKLSNFLHAQQWKGASNYVAKRYIEPVDRSVYFEDVQLQMEAKLWGEDYNRHKPPKQVDIMQMCIIELKDRPGQPLFHLEHYIEGKYIKYNSNSGFVRDDNIRLTPQAFSHFTFERSGHQLIVVDIQGVGDLYTDPQIHTEKGTDFGDGNLGVRGMALFFYSHACNRICQSMGLTPFDLSPREQDAVNQSTRLLQSAKTILRGTEEKCGSPRIRTLSSSRPPLLLRLSENSGDENMSDVTFDSLPSSPSSATPHSQKLDHLHWPVFGDLDNMGPRDHDRMDNHRDSENSGDSGYPSEKRSDLDDPEPREHGHSNGNRRHESDEDSLGSSGRVCVETWNLLNPSRLHLPRPSAVALEVQRLNALDLGRKIGKSVLGKVHLAMVRYHEGGRFCEKDEEWDRESAIFHLEHAADLGELEAIVGLGLMYSQLPHHILADVSLKETEENKTKGFDYLLKAAEAGDRHSMILVARAFDTGLNLSPDRCQDWSEALHWYNTALETTDCDEGGEYDGIQDEPQYALLAREAEMLLTGGFGLDKNPQRSGDLYTQAAEAAMEAMKGRLANQYYEKAEEAWAQMEE
modifications: phosphorylated (site not stated)
binding: binds

B2: eukaryotic elongation factor-2 kinase (eEF2K) (enzyme, UniProt O08796 1-724)
chain: B1 chain
binding: binds
